# The whole screen tested about 31,000 sequences, of which about 1,400 (4.5%) were called active.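 How the source made its calls: active means median seed-adjusted z-score above 1 or below -1; inactive means the rest.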 The list shows a part of the results.
# Experiment: Novel Modifiers of Survival Motor Neuron (SMN) Protein: Gene Identification via Genome-wide siRNA Screen;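 further: luminescence tracks full-length SMN protein made from the SMN2 reporter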
# Details: HEK293T SMN2-luciferase reporter, siRNA knockdown, 72 h; actives lie on both sides
# Summary of the method: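 Luciferase signal, proportional to full-length SMN made from an SMN2 cDNA reporter in stable HEK293T cells, was read 72 h after siRNA reverse transfection. Values were expressed as MAD scores after non-targeting-control normalization and log10 conversion; seed analysis flagged off-targets.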
row,Sequence,median seed-adjusted z-score
1,ACCUCAUCGUCACCGUCAATT against PARD6G,inactive: 0
2,UGAUCAGCAUUGACAGGUATT against HTR7,inactive: -0.0111
3,GUGAGACAGUGGUACGUAATT against TRPM8,inactive: 0.405
4,CCUUAGUGCCUGUGACAAATT against S100A7,inactive: -0.253
5,GAUCCAUUGAUGUUCGAGATT against RXRB,inactive: 0.147
6,AGAGAUCUCUACAUCAAAATT against RAP2C,inactive: 0.443
7,GGUCAUCGCAAGUUUGACATT against TTL,inactive: -0.174
8,GGAUCCAACUUCAGAUACATT against NUP155,inactive: 0.141
9,CAACCACUGUGAGACGAAATT against MFGE8,inactive: 0.0367
10,GCAGUCCUCCUAUCCAGUUTT against HSF5,inactive: 0.369
11,UGAAGCAUAUGGUAGCUCATT against RBMY1F,inactive: 0.2
12,AAAUCCGAGUGGAUACAAATT against RDH12,inactive: -0.0267
13,CCCGAGACAUUGUCCAGUUTT against CPNE6,inactive: -0.528
14,GCAGCCCUGAUGUCCAGUATT against EFS,inactive: -0.299
15,GAUUUUGUGCGAUCCAUAATT against CBARA1,inactive: -0.0426
16,GUCUUUGACUUUGAACUGATT against AKR1B1,inactive: 0.0107
17,CCACAGAGGCUAUGCUAAATT against ACE,inactive: 0.0874
18,GCAAAACGGAGGAUUGAGATT against EIF5B,active: 1.68
19,CAAACUCUCUCUGGACAAATT against STOML2,inactive: -0.264
20,GCGUACACCUACAACAACATT against IGFALS,inactive: 0.0888
21,GAUGGAUCCAUGUAAUACATT against NCOA1,inactive: 0.537
22,GGACAUGCUUUCUCAACUATT against ZNF641,inactive: 0.233
23,GGCUACAAUUUAAGACGAUTT against TNR,inactive: 0.498

# 3 entries picked at random from the list so far, as already listed:
row,Sequence,median seed-adjusted z-score
14,GCAGCCCUGAUGUCCAGUATT against EFS,inactive: -0.299
23,GGCUACAAUUUAAGACGAUTT against TNR,inactive: 0.498
3,GUGAGACAGUGGUACGUAATT against TRPM8,inactive: 0.405

# (continued)

row,Sequence,median seed-adjusted z-score
1,AGUUUGAGAUGAUCGAUGATT against MAPK8IP2,inactive: 0.284
2,CUACAAAGCCCACUACUUUTT against S1PR2,inactive: -0.964
3,GGAUCGCCCAUCAUUCUGATT against PLXNA2,inactive: 0.308
4,CAACAAAGAUAGCAUGCUATT against PCDHGB7,inactive: -0.0065
5,CCAACUACUUGUCAACAGATT against CHDH,inactive: 0.0241
6,CACCAAGCCUGGUGGAUGATT against HTRA3,inactive: 0.291
7,GGACUUCUUUGUGCGCCUATT against ABHD8,inactive: -0.48
8,CAGCAAUGCUGAUCCGGAATT against ITGA8,inactive: -0.215
9,GGCCGUCAGUAAUACAUCUTT against ZBTB33,inactive: 0.164
10,GAGCCUGGAUGUGAAUGGATT against FBXO44,inactive: -0.45
11,CCGGGAAAGUUUGACUGCATT against OAZ3,inactive: 0.046
12,AAGUCAACAUAGCCCGAAATT against RDBP,inactive: 0.975
13,CAACAGACACUGUUAUAAATT against SMPDL3A,inactive: 0.49
14,GGAGCGAGCUGGUGCAUAATT against SH3BP5,inactive: -0.707
15,GGUUCGGACAUCACAAGUATT against ZHX2,inactive: 0.0708
16,GGAAUUGUGGUGUUAGUAATT against POLN,inactive: -0.129
17,GGAAAGUUGUGCAGUCGUATT against XRN2,inactive: -0.312
18,CCCUAAAACUGUUGGAAGATT against NARG1L,inactive: 0.0121
19,GCAUGGACCUUGAAGAUCUTT against NALCN,inactive: -0.266
20,CAAGAGUCAGAAAUACUAATT against CNTNAP4,inactive: -0.414
21,GGAAAACUUGAGUUACGAUTT against HSPH1,inactive: -0.314
22,GGAAGACUGUUACUACAGUTT against FAS,inactive: -0.377
23,GAGAUACCGUGAAACAUUATT against HCK,inactive: -0.48

row,Sequence,median seed-adjusted z-score
1,GGAAGAACGUGUAACCGAATT against RDX,inactive: 0.123
2,UGCACAAGCUGGACGGUUATT against ADAM11,inactive: 0.102
3,CCCUACCCUUUGGACUGAATT against SMOC2,inactive: -0.72
4,CCCAAAAUGUGGAUGCUUUTT against SIRT4,inactive: 0.623
5,CAGAGGAUUUUAGUCUAUATT against BRAF,inactive: 0.271
6,AGAUAUAUAAAUCAACGAATT against LSM3,active: -1.36
7,GCACCAUUGUUUGAAUUGUTT against NUDT21,inactive: 0.0851
8,ACACCAACCAUGCUGUUUATT against USP2,inactive: -0.0321
9,GAACCGAUCACAUAUCAAATT against PIGW,inactive: -0.242
10,GGAACAUUAUUGACAAUCUTT against IDH3B,inactive: -0.642
11,UGACCGUACAGGUACAGAATT against CIC,inactive: 0.756
12,AGAUCAAGGUGUACGAGAUTT against KIF26A,inactive: -0.428
13,CCAUGGAGGUACCAACUUUTT against GLB1L,inactive: -0.263
14,GGUGGAUCUAGUUUCGUAATT against ZFYVE16,inactive: 0.314
15,GCGACAUCAUGACGAGUGATT against INPP5D,inactive: 0.0116
16,GGUCGAGUUCUACUACAAATT against IPO11,inactive: -0.245
17,GAACUGAGAAGGAACGCGATT against TNNT1,inactive: 0
18,CCUUUAUCAUCAACCUCUUTT against SLC11A1,inactive: -0.516
19,CUACAUAUGUGAGGACUGUTT against ZNF492,inactive: 0.0668
20,AGACCUGUAUCACAAGUGATT against SIGLEC8,inactive: 0.0069
21,GAUCCUAGCAAUAACUUCATT against MCCC1,inactive: 0.298
22,CGGCAACUGGAACAGACAATT against MYD88,inactive: -0.365
23,GGCACGAAAGGAUCAAGAATT against IL17RB,inactive: -0.464

# From PubChem BioAssay AID1347426 (Functional Genomics Laboratory (NCATS/FGL), 2020)
